According to publication PMC7289907:
These are yes or no findings as the source states them, for the method shown. In cells and extracts the contact can be indirect. Here binding means that the protein was enriched with, or labelled near, the bait; the list need not be complete.

The chains behind the UniProt entries cited, without tags or fusion partners.
UniProt P52926: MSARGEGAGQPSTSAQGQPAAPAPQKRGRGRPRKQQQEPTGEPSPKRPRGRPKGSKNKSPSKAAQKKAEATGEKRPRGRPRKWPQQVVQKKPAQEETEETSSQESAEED

Target: T1, T7-PJA1 (Praja ring finger E3 ubiquitin ligase 1) (human) (UniProt Q8NG27)
T1 sequence: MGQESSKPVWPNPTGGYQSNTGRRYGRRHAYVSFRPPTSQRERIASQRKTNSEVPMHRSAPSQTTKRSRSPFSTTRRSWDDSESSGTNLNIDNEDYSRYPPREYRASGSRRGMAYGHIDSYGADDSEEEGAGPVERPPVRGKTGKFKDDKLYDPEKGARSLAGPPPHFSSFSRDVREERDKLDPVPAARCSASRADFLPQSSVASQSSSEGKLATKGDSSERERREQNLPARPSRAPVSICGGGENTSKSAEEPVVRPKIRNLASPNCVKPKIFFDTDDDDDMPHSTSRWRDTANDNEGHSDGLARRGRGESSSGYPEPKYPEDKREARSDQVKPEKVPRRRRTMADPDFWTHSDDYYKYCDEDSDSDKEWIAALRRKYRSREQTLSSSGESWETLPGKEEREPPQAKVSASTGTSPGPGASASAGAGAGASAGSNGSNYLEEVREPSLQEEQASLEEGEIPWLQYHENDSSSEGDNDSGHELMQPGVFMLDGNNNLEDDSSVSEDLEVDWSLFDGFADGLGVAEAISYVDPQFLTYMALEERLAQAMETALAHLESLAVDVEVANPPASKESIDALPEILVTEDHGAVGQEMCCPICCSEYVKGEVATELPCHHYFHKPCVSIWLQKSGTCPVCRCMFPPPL
Assay: affinity purification with mass spectrometry; HepG2 cells transfected with T7-PJA1, with or without TGF-β1 (200 pM, 3 h); lysate in NP-40 buffer (50 mM Tris-HCl pH 7.5, 0.15 M NaCl, 1% NP-40, 1 mM EDTA), 1 mg protein precipitated with T7 antibody-beads; SDS-PAGE, silver stain; bands seen only in the TGF-β1 lane cut out for mass spectrometry

binding: binds
Substance: High mobility group AT-hook 2 (HMGA2) (from UniProt P52926 1-109)
